From patent publication US20120058051A1 (US Dept. of Health and Human Services, published 2012)
Results are given in words; binding and its absence hold for the method and conditions named. Some results given as binding are weak or reduced against the parent protein; the word gives no strength.

Sequences of proteins named here, by UniProt entry; tags and fusion partners are left off. Residues count along the entry.
Fc-hROR1(d1d2) (Q01973, residues 30-307): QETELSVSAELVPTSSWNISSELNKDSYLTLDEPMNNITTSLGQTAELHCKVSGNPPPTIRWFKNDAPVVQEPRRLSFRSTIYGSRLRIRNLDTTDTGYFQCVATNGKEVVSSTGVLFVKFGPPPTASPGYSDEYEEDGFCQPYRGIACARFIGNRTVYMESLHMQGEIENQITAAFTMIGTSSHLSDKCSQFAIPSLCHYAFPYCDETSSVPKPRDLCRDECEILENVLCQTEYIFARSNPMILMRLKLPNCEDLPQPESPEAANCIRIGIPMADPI
Fc-hROR(d1) (Q01973, residues 30-160): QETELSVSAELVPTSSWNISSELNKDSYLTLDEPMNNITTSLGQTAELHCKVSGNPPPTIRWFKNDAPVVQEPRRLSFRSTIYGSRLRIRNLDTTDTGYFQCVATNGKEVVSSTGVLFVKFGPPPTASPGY

What was measured:
Fc-hROR1(d1d2) (human) = Fc-hROR1(d1d2) (human) (UniProt Q01973); assay: ELISA, coated construct; score ++
Fc-hROR(d1) (human) = Fc-hROR(d1) (human) (UniProt Q01973); assay: ELISA, coated construct; score +

B1: mouse monoclonal antibody (mAb) 2A2 (antibody, mouse IgG1, V domains shown)
VH: QVQLQQSGAELVRPGASVTLSCKASGYTFSDYEMHWVIQTPVHGLEWIGAIDPETGGTAYNQKFKGKAILTADKSSSTAYMELRSLTSEDSAVYYCTGYYDYDSFTYWGQGTLVTVSA
VL: DIVMTQSQKIMSTTVGDRVSITCKASQNVDAAVAWYQQKPGQSPKLLIYSASNRYTGVPDRFTGSGSGTDFTLTISNMQSEDLADYFCQQYDIYPYTFGGGTKLEIK
notes: also called mouse mAb 2A2
**Q.** How did the binding (Fc-hROR1(d1d2) (human)) turn out when B1 was run?
**A.** The binding was “binds”.

**Q.** And the binding (Fc-hROR(d1) (human))?
**A.** Its binding is “binds”.
